The assay deals with T1, monocarboxylate transporter MCT2 (rat (endogenous in primary hippocampal neurons)) (UniProt Q63344).
T1 sequence: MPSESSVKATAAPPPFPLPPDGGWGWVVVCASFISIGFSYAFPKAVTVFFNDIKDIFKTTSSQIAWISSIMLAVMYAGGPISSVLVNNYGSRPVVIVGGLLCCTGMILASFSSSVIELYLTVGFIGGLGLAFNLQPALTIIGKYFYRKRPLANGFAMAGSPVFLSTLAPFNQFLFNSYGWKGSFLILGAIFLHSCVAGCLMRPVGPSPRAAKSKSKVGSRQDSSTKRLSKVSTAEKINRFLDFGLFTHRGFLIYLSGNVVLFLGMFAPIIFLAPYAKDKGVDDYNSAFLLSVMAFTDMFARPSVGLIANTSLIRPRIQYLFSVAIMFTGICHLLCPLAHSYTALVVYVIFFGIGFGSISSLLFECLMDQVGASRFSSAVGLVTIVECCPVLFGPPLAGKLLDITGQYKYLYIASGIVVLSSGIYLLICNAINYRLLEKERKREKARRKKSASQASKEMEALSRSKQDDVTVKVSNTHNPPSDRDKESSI
Put plainly: co-IP; MCT2 immunoprecipitated (anti-MCT2 1:50, overnight 4°C, protein A agarose) from homogenate of cultured rat hippocampal neurons in 20 mM Tris HCl, 137 mM NaCl, 10% glycerol, 1% n-octyl-b-D-glucoside, 2 mM EDTA, pH 7.4; Western blot for AQP9.

These are yes or no findings as the source states them, for the method shown. Binding seen in cells or lysates may run through a third protein. Some entries that bind do so weakly or less than the wild type.

B1: aquaglyceroporin AQP9 (protein, UniProt P56627 1-295)
chain: MPSEKDGAKKSLMQRLALKSRIAKETLSEFLGTFIMIVLGCSSIAQAVLSRERFGGIITINIGFASAVVMALYVTFGISGGHINPAVSFAMCAFGRMEWFKFPFYVGAQFLGAFVGAATVFGIYYDGLMAFAGGKLLVVGENATAFIFATYPAPFISTPGAFVDQVVSTMFLLLIVFAMFDSRNLGVPRGLEPVVIGLLIIVLSCSLGLNSGCAMNPARDLSPRLFTALAGWGFEVFTVGNNFWWIPVVGPMIGAFLGGLIYILFIQMHHSKLDPDMKAEPSENNLEKHELSVIM
In the case of B1, the binding entry is on record as “binds”.

For the origin of these results see article PMC4130107.
